# Measurements reported in PubChem BioAssay AID602196 (INSERM, 2012).
# Assay: 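Knock-downs that protect lung cancer cells from cisplatin or sensitise them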
# System: human A549 lung cancer cells
# Reagents: siRNA pair against human genes
# Time to read-out: 48 h transfection before cisplatin; time from cisplatin to read-out not stated
# Conditions: cisplatin at a dose killing half of control-siRNA cells; exact dose and duration not given
# Measurement: 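Cisplatin cell death as a shift from the 50% death seen with control siRNA; siRNAs toxic or growth-blocking alone scored 0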
# Scale: two-siRNA summed score (-2 to +2): higher = both siRNAs protect from cisplatin killing; -2 means both sensitise
# Call rule: 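Each siRNA scores 0 if harmful alone by LDH or WST-1, otherwise +1 if it reduces and -1 if it increases cisplatin killing; a gene is active when both siRNAs agree (sum +2 or -2)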
# Meaning of the calls: active = both siRNAs shift cisplatin killing the same way; inactive = no consistent shift, or siRNA harmful alone
# The whole screen tested about 23,000 reagents; below is a random part of them. Over the whole deposit, 455 (2%) were called active. 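Active includes both protection and sensitisation; some change values fall well beyond the stated -50 to +50 range.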 The numbers tell different reagents against one gene apart. Further read-outs or replicates are left out here. The record does not give: the amount of reagent.
gene knocked down,reagent,two-siRNA summed score (-2 to +2),activity call
SLC10A1,1,0,inactive
P3H2 (prolyl 3-hydroxylase 2),1,1,inactive
LOC440289,1,1,inactive
TRMT13 (tRNA methyltransferase 13),1,-1,inactive
LOC441851,1,0,inactive
TMPRSS2 (transmembrane serine protease 2),1,0,inactive
LOC442671,1,0,inactive
AKAP4 (A-kinase anchoring protein 4),1,0,inactive
OPHN1 (oligophrenin 1),1,0,inactive
ELAVL3 (ELAV like RNA binding protein 3),1,0,inactive
ZNF74 (zinc finger protein 74),1,0,inactive
PTPRU (protein tyrosine phosphatase receptor type U),1,0,inactive
C2CD2L (C2CD2 like),1,0,inactive
EPHA2 (EPH receptor A2),1,0,inactive
CYP26A1 (cytochrome P450 family 26 subfamily A member 1),1,-1,inactive
OR5AN1 (olfactory receptor family 5 subfamily AN member 1),1,0,inactive
SMU1 (SMU1 DNA replication regulator and spliceosomal factor),1,0,inactive
LINC01118 (long independently transcribed non-coding RNA 1118),1,-1,inactive
CLK2 (CDC like kinase 2),1,0,inactive
FAM3C (FAM3 metabolism regulating signaling molecule C),1,1,inactive
TRARG1 (trafficking regulator of GLUT4 (SLC2A4) 1 (gene/pseudogene)),1,1,inactive
TRIM60 (tripartite motif containing 60),1,-1,inactive
LOC342853,1,1,inactive
SLC16A14,1,0,inactive
AK5 (adenylate kinase 5),1,2,active
LOC440512,1,1,inactive
LOC441819,1,0,inactive
EIF4E2 (eukaryotic translation initiation factor 4E family member 2),1,0,inactive
POLR3K (RNA polymerase III subunit K),1,0,inactive
PTPN11 (protein tyrosine phosphatase non-receptor type 11),1,0,inactive
FAM120C (family with sequence similarity 120 member C),1,0,inactive
SRCAP (Snf2 related CREBBP activator protein),1,0,inactive
ESPNL (espin like),1,1,inactive
PTPN13 (protein tyrosine phosphatase non-receptor type 13),1,0,inactive
SH2D2A (SH2 domain containing 2A),1,-1,inactive
LOC440966,1,1,inactive
PRLHR (prolactin releasing hormone receptor),1,0,inactive
LOC389333,1,0,inactive
UGT3A1 (UDP glycosyltransferase family 3 member A1),1,1,inactive
SPIN1 (spindlin 1),1,0,inactive
LOC439967,1,0,inactive
PXT1 (peroxisomal testis enriched protein 1),1,0,inactive
CDHR2 (cadherin related family member 2),1,-1,inactive
NXPE3 (neurexophilin and PC-esterase domain family member 3),1,0,inactive
KIAA0825,1,0,inactive
KIAA0825,2,1,inactive
SIX6 (SIX homeobox 6),1,0,inactive
CREBZF (CREB/ATF bZIP transcription factor),1,0,inactive
HHIP (hedgehog interacting protein),1,0,inactive
LOC390007,1,0,inactive
TECTB (tectorin beta),1,0,inactive
NCF4 (neutrophil cytosolic factor 4),1,0,inactive
RASL11B (RAS like family 11 member B),1,0,inactive
MALSU1 (mitochondrial assembly of ribosomal large subunit 1),1,0,inactive
OPN3 (opsin 3),1,0,inactive
SCGB2A2 (secretoglobin family 2A member 2),1,1,inactive
TRNAU1AP (tRNA selenocysteine 1 associated protein 1),1,0,inactive

An excerpt of the results above, for reference:
gene knocked down,reagent,two-siRNA summed score (-2 to +2),activity call
TRARG1 (trafficking regulator of GLUT4 (SLC2A4) 1 (gene/pseudogene)),1,1,inactive
TRIM60 (tripartite motif containing 60),1,-1,inactive
LOC342853,1,1,inactive
SLC16A14,1,0,inactive
AK5 (adenylate kinase 5),1,2,active
LOC440512,1,1,inactive
LOC441819,1,0,inactive
